Measurements as given in the supplement of paper PMC11098740.
Structures can show the parent of a compound that is named as a salt. The list shows a part of the results. Single values are uncertain, as repeats are few or missing.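 The assay uses a mixed pool of 41 HAP1 clones in which 61 cancer-associated proteins bear intron-inserted fluorescent tags, and clones are distinguished by image pattern. Results are compared against DMSO-treated control wells, and the BRD4 degrader dBET6 is the positive control.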

By UniProt entry, the sequences of proteins in these tests, tags left out.
UniProt O14980, whole entry: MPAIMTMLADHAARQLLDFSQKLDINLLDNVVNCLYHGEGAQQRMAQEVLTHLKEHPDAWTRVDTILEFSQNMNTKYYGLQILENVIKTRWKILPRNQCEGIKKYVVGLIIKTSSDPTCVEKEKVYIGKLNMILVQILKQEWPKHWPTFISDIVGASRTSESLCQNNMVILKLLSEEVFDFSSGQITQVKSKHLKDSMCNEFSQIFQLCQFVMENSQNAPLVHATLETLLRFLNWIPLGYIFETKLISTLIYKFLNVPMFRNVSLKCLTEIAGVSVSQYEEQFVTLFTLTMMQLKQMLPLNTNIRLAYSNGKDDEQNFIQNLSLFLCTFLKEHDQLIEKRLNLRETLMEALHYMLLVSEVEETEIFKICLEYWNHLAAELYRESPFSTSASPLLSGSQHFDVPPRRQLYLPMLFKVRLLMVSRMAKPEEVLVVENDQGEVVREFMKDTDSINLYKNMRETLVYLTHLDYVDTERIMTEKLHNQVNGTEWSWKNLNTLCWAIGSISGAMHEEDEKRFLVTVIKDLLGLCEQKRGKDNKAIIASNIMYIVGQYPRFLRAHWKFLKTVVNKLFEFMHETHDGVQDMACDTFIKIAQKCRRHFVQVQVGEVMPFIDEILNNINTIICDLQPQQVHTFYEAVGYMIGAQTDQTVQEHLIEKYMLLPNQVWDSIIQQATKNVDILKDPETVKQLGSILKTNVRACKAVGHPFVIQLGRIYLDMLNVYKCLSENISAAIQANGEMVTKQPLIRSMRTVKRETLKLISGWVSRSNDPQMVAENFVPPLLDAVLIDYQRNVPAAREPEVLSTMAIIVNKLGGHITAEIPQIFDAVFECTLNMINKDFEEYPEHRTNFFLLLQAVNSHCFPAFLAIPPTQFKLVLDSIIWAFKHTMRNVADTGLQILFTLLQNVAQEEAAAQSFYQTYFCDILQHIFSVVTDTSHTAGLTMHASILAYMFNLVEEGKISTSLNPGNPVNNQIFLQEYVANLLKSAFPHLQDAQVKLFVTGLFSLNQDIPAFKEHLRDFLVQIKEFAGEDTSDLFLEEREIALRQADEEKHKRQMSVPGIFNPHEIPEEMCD

These compounds were tested against XPO1 (intron 15 mScarlet tag, HAP1) (UniProt O14980) (assay: XPO1 fluorescence intensity change vs DMSO (log2 fold change); higher = more XPO1 protein). Settings: 6 h.

| SMILES | XPO1 fluorescence intensity change (log2) |
| --- | --- |
| Cc1cc(C)cc(OCC2CNC(=O)O2)c1 (configuration not stated) [Metaxalone] (10 µM) | 0.0988 |
| O=C(CCCCCCC(=O)Nc1ccccc1)NO [Vorinostat] (3.889 µM) | -0.0443 |
| CC[C@]1(O)C[C@@H]2CN(CCc3c([nH]c4ccccc34)[C@@](C(=O)OC)(c3cc4c(cc3OC)N(C)[C@H]3[C@@](O)(C(N)=O)[C@H](O)[C@]5(CC)C=CCN6CC[C@]43[C@@H]65)C2)C1 [Vindesine sulfate] (10 µM) | -0.0158 |
| CCOC(=O)C(C)(C)Oc1ccc(Cl)cc1 [Clofibrate] (10 µM) | 0.126 |
| CCn1cc(C(=O)O)c(=O)c2cc(F)c(N3CCNCC3)nc21 [Enoxacin] (10 µM) | 0.0326 |
| CC(=O)c1ccc(S(=O)(=O)NC(=O)NC2CCCCC2)cc1 [Acetohexamide] (10 µM) | 0.0385 |
| CN(C)CCCC1(c2ccc(F)cc2)OCc2cc(C#N)ccc21 (configuration not stated) [Citalopram] (10 µM) | -0.0686 |
